The values that follow come from PubChem BioAssay AID330 (DTP/NCI, 2004).

This assay relates to P388 leukemia ip, CD2F1 mice, survival T/C. The experiment in a line: NCI In Vivo Anticancer Drug Screen. Data for tumor model P388 Leukemia (intraperitoneal) in CD2F1 (CDF1) mice. To be noted: T/C endpoint: median survival time, higher T/C = longer survival.
[1] abbreviates: dose: 6.25 mg/kg/injection, schedule: Q01DX009 (ip), vehicle: saline with Tween-80.
Where [2] appears, read: dose: 12.5 mg/kg/injection, schedule: Q01DX009 (ip), vehicle: saline with Tween-80.
The mark [3] stands for this setting: dose: 25.0 mg/kg/injection, schedule: Q01DX009 (ip), vehicle: saline with Tween-80.
The mark [4] stands for this setting: dose: 50.0 mg/kg/injection, schedule: Q01DX009 (ip), vehicle: saline with Tween-80.
Where [5] appears, read: dose: 100.0 mg/kg/injection, schedule: Q01DX009 (ip), vehicle: saline with Tween-80.
Setting [6] is: dose: 0.1 mg/kg/injection, schedule: Q01DX009 (ip), vehicle: suspension in saline.
[7] abbreviates: dose: 0.4 mg/kg/injection, schedule: Q01DX009 (ip), vehicle: saline.

Structures are written as SMILES. The list shows only some results of the screen, not a fair sample: it gathers tests that were run many times, whatever their T/C, doses with no T/C, and many T/C values between a quarter and a half above the control. Further doses and runs are listed elsewhere. T/C gives the treated animals as a percentage of the vehicle group. Some doses have a count of surviving animals in place of a T/C: the source files T/C as zero there, which appears to mark a toxic dose or a test without result, not a measured value. Some doses without a T/C left all or most animals alive at the check, yet need not have been tolerated: the source hardly ever lists a survival T/C far under the control, and the zero likely stands for such cases as well. Survivors were counted at the toxicity check, usually on the fifth day, unless a day is given; later deaths do not show. Schedules are NCI's codes, taken here to give the interval after Q, in days (D) or hours (H), and the number of doses after X. Some doses were run more than once; their values stand side by side, smallest first. For survival time, the PubChem record calls one and a half times the control and up active, and a quarter to a half above the control has no call in these data; cut-offs in other NCI protocols can differ. Some schedule codes hold Z or #, which are not explained here. Some T/C values are followed by the survivors on the day toxicity was checked, most often the fifth; without a count, all were alive then.

In the case of `CNc1nc(N(C)C)nc(N(C)C)n1`, the survivor count is 6 of 6 (dose: 25.0 mg/kg/injection, schedule: Q01DX009 (ip), vehicle: water); 3 of 10 (dose: 32.0 mg/kg/injection, schedule: Q01DX005 (iv), vehicle: water); 3 of 10 (dose: 64.0 mg/kg/injection, schedule: Q01DX005 (iv), vehicle: water); 10 of 10 (dose: 64.0 mg/kg/injection, schedule: Q03HX008 (ip), vehicle: water); 10 of 10 (dose: 64.0 mg/kg/injection, schedule: Q03HX016 (ip), vehicle: water); 10 of 10 (dose: 64.0 mg/kg/injection, schedule: Q03HX024 (ip), vehicle: water). In addition, the survivor count (dose: 128.0 mg/kg/injection, schedule: Q01DX005 (iv), vehicle: water) was 2 of 10; the survivor count (dose: 128.0 mg/kg/injection, schedule: Q01DX009 (ip), vehicle: water) was 10 of 10; the survivor count (dose: 128.0 mg/kg/injection, schedule: Q03HX008 (ip), vehicle: water) is listed as 9 of 10; the survivor count (dose: 128.0 mg/kg/injection, schedule: Q03HX016 (ip), vehicle: water) is reported as 6 of 10; the survivor count (dose: 128.0 mg/kg/injection, schedule: Q03HX024 (ip), vehicle: water) is given as 3 of 10; the survivor count (dose: 150.0 mg/kg/injection, schedule: Q01DX009 (ip), vehicle: water) was 6 of 6. Further, the survivor count was 4 of 6 and 5 of 6 (dose: 200.0 mg/kg/injection, schedule: Q01DX009 (ip), vehicle: water); 9 of 10 (dose: 256.0 mg/kg/injection, schedule: Q01DX001 (ip), vehicle: water); 6 of 10 (dose: 256.0 mg/kg/injection, schedule: Q01DX005 (ip), vehicle: water); 2 of 10 (dose: 256.0 mg/kg/injection, schedule: Q01DX005 (iv), vehicle: water); 4 of 10 (dose: 256.0 mg/kg/injection, schedule: Q01DX009 (ip), vehicle: water); 10 of 10 (dose: 256.0 mg/kg/injection, schedule: Q01DX009 (oral), vehicle: water). Further, the survivor count is, setting by setting: (dose: 256.0 mg/kg/injection, schedule: Q01DX009 (sc), vehicle: water) 5 of 10; (dose: 256.0 mg/kg/injection, schedule: Q04DX003 (ip), vehicle: water) 10 of 10; (dose: 256.0 mg/kg/injection, schedule: Q08DX002 (ip), vehicle: water) 10 of 10; (dose: 512.0 mg/kg/injection, schedule: Q01DX001 (ip), vehicle: water) 1 of 10; (dose: 512.0 mg/kg/injection, schedule: Q01DX001 (oral), vehicle: water) 9 of 10; (dose: 512.0 mg/kg/injection, schedule: Q04DX003 (ip), vehicle: water) 3 of 10. Also, the survivor count (dose: 512.0 mg/kg/injection, schedule: Q08DX002 (ip), vehicle: water) is reported as 1 of 10. For the same compound, the T/C was 125 % of control (dose: 50.0 mg/kg/injection, schedule: Q01DX009 (ip), vehicle: water) and 126, 127, 138 % of control (dose: 100.0 mg/kg/injection, schedule: Q01DX009 (ip), vehicle: water).
For the compound `c1ccc2c(NCCCCCCCCCCNc3c4ccccc4nc4ccccc34)c3ccccc3nc2c1`, the T/C (dose: 2.5 mg/kg/injection, schedule: Q## X009 (ip), vehicle: lactic acid) was 133 % of control.
In the case of `C=COCC(C)C` (tested in a mixture with another compound), the survivor count reads like this: under setting [1], 3 of 6; under setting [2], 0 of 6; under setting [3], 0 of 6 and 1 of 6; under setting [4], 0 of 6; under setting [5], 0 of 6.
Take `CCCCCCCCCCCCCCCCC[N+]1(CC)CCCCC1`: the survivor count runs as follows: (dose: 1.56 mg/kg/injection, schedule: Q01DX009 (ip), vehicle: saline) 1 of 6; (dose: 3.12 mg/kg/injection, schedule: Q01DX009 (ip), vehicle: saline) 6 of 6; (dose: 6.25 mg/kg/injection, schedule: Q01DX009 (ip), vehicle: saline) 1 of 6; (dose: 12.5 mg/kg/injection, schedule: Q01DX009 (ip), vehicle: saline) 0 of 6; (dose: 50.0 mg/kg/injection, schedule: Q01DX009 (ip), vehicle: saline) 0 of 6; (dose: 100.0 mg/kg/injection, schedule: Q01DX009 (ip), vehicle: saline) 0 of 6. Moreover, the survivor count (dose: 200.0 mg/kg/injection, schedule: Q01DX009 (ip), vehicle: saline) is given as 0 of 6.
Turning to `CNC(=O)/C=C/C1=CN2C(=O)c3ccc(C)c(O)c3NC(OC)C2C1` (configuration not stated), the survivor count is 6 of 6 (dose: 0.02 mg/kg/injection, schedule: Q01DX009 (ip), vehicle: suspension in saline); 3 of 6 (dose: 0.05 mg/kg/injection, schedule: Q01DX009 (ip), vehicle: suspension in saline); 0 of 6 under setting [6]; 0 of 6 (dose: 0.2 mg/kg/injection, schedule: Q01DX009 (ip), vehicle: suspension in saline); 5 of 5 under setting [7]; 0 of 6 and 5 of 6 (dose: 0.4 mg/kg/injection, schedule: Q01DX009 (ip), vehicle: suspension in saline). For the same compound, the survivor count is, setting by setting: (dose: 0.8 mg/kg/injection, schedule: Q01DX009 (ip), vehicle: saline) 0 of 5 and 6 of 6; (dose: 0.8 mg/kg/injection, schedule: Q01DX009 (ip), vehicle: suspension in saline) 0 of 6 and 5 of 6. Also, the T/C by setting is: (dose: 0.05 mg/kg/injection, schedule: Q01DX009 (ip), vehicle: saline) 144 % of control; (dose: 0.1 mg/kg/injection, schedule: Q01DX009 (ip), vehicle: saline, evaluated on day 20) 144 % of control; (dose: 0.1 mg/kg/injection, schedule: Q01DX009 (ip), vehicle: saline, evaluated on day 23) 128 % of control; under setting [6], 125 % of control; (dose: 0.2 mg/kg/injection, schedule: Q01DX009 (ip), vehicle: saline) 138 % of control; under setting [7], 137 % of control.
As to `CC1=NN(c2cccc(S(=O)(=O)O)c2)C(=O)C1`, for the setting “dose: 400.0 mg/kg/injection, schedule: Q01DX009 (ip), vehicle: saline”, the survivor count is 6 of 6.
For `O=C(CCCc1ccc(N(CCCl)CCCl)cc1)NCC(O)C(O)C(O)C(O)CO` (configuration not stated), the survivor count reads like this: (dose: 90.0 mg/kg/injection, schedule: Q01DX005 (ip), vehicle: saline with Tween-80) 4 of 6; (dose: 120.0 mg/kg/injection, schedule: Q01DX005 (ip), vehicle: saline with Tween-80) 2 of 6; (dose: 240.0 mg/kg/injection, schedule: Q01DX005 (ip), vehicle: saline with Tween-80) 0 of 6.
On to `O=C1c2cccc3cc([N+](=O)[O-])cc(c23)C(=O)N1CCN1CCCC1`, for which the T/C (dose: 3.12 mg/kg/injection, schedule: Q01DX009 (ip), vehicle: saline with Tween-80) is 129 % of control; the T/C (dose: 3.13 mg/kg/injection, schedule: Q01DX009 (ip), vehicle: saline with Tween-80) is 135 % of control; the T/C under setting [1] is 140 and 141 % of control; the T/C under setting [2] was 141 % of control; the T/C under setting [3] is 128 % of control [4 of 6 alive]. The survivor count is 6 of 6 under setting [3]; 5 of 6 under setting [4]; 2 of 6 under setting [5]; 0 of 6 (dose: 200.0 mg/kg/injection, schedule: Q01DX009 (ip), vehicle: saline with Tween-80).
